Residue numbers refer to the chain shown, from its start. Results are given in words; binding and its absence hold for the method and conditions named. Some results given as binding are weak or reduced against the parent protein; the word gives no strength. For part of these data: Where a sequence is shown, tags or fusion partners need not be part of it. Each block holds one binder with its values, some of them ahead of it.
How the values were obtained:
[1] = target: Human IL-2Rβ/γ (intermediate affinity IL-2 receptor) (human) (UniProt P14784+P31785); experiment: FACS on HH cells (IL-2Rβ/γ), 30 min at 4 °C, PE anti-human Fc, MFI
[2] = target: T1, W369-hPro1.ECD.His, IL-2Rγ ECD (human) (UniProt P31785); experiment: SPR; variant pre-complexed 1:1 with IL-2Rβ, IL-2Rγc on the chip
T1 sequence: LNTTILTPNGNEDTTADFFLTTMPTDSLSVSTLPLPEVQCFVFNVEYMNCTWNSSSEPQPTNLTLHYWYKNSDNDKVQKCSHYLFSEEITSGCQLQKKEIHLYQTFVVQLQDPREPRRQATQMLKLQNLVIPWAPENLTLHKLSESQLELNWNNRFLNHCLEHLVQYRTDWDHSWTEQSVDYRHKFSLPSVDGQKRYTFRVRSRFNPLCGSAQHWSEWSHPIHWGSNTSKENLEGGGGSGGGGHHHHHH

Amino acid sequences for entries named in this document (tags omitted). A change or cut given only in a name is not applied to a line headed by its entry.
UniProt P01589: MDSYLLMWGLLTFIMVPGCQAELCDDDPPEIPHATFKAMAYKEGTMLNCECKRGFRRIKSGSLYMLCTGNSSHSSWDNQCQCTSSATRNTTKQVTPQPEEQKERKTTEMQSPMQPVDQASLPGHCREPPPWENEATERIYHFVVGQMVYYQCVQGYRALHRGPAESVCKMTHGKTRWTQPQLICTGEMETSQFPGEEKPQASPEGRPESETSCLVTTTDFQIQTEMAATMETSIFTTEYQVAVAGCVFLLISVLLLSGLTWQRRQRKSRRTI

[3] = target: Human IL-2Rα/β/γ complex (high affinity IL-2 receptor) (human) (UniProt P01589+P14784+P31785); experiment: FACS on MJ20 cells (IL-2Rα/β/γ), 30 min at 4 °C, PE anti-human Fc, MFI
[4] = target: T1, W369-hPro1.ECD.His, IL-2Rγ ECD (human); experiment: SPR (Biacore 8K): variant pre-mixed 1:1 with human IL-2Rβ ECD (W369-hPro2.ECD.His), injected over immobilised human IL-2Rγc [panel 1 of the lower row]
[5] = target: T2, W369-hPro2.ECD.His, IL2Rβ ECD (human) (UniProt P14784); experiment: SPR Biacore 8K
T2 sequence: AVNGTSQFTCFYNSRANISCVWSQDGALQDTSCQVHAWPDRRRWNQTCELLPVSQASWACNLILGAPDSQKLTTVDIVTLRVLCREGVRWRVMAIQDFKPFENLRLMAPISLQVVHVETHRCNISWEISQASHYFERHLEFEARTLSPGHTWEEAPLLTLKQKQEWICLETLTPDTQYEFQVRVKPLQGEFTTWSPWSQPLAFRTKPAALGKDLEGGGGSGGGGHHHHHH

binding [1]: binds
B1: W3XX115-T2U0.E44-30.uIgG4V1 (Fc fusion)
chain: APTSSSTKKTQLQLEHLLLDLQMILNGINNYKNPKLTRMLTFKFYMPKKATELKHLQCLEEELKPLEEVLNLAQSKNFHLRPRDLISNINVIVLELKGSETTFMCEYADETATIVEFLNRWITFCQSITESKYGPPCPPCPAPEFLGGPSVFLFPPKPKDTLMISRTPEVTCVVVDVSQEDPEVQFNWYVDGVEVHNAKTKPREEQFNSTYRVVSVLTVLHQDWLNGKEYKCKVSNKGLPSSIEKTISKAKGQPREPQVYTLPPCQEEMTKNQVSLWCLVKGFYPSDIAVEWESNGQPENNYKTTPPVLDSDGSFFLYSRLTVDKSRWQEGNVFSCSVMHEALHNHYTQKSLSLSLG
heavy: EIQLQQSGPELVKPGASVKVSCKASGYSFTDYNMYWVKQSHGESLEWIGYIDPYNGGTRYNQKFKGKATLTVDKSSSTAFMHLNSLTSEDSAVYYCARNGHWDGAWFAYWGQGTLVTVSAASTKGPSVFPLAPCSRSTSESTAALGCLVKDYFPEPVTVSWNSGALTSGVHTFPAVLQSSGLYSLSSVVTVPSSSLGTKTYTCNVDHKPSNTKVDKRVESKYGPPCPPCPAPEFLGGPSVFLFPPKPKDTLMISRTPEVTCVVVDVSQEDPEVQFNWYVDGVEVHNAKTKPREEQFNSTYRVVSVLTVLHQDWLNGKEYKCKVSNKGLPSSIEKTISKAKGQPREPQVCTLPPSQEEMTKNQVSLSCAVKGFYPSDIAVEWESNGQPENNYKTTPPVLDSDGSFFLVSRLTVDKSRWQEGNVFSCSVMHEALHNHYTQKSLSLSLG
light: DIQMNQSPSSLSASLGDTITITCHASQNINVWLSWYQQKPGNIPKLLIYKASNLHTGVPSRFSGSRSGTGFTLTISSLQPEDIATYYCHQGQSYPFTFGSGTKLEIKRTVAAPSVFIFPPSDEQLKSGTASVVCLLNNFYPREAKVQWKVDNALQSGNSQESVTEQDSKDSTYSLSSTLTLSKADYEKHKVYACEVTHQGLSSPVTKSFNRGEC

binding [1]: binds
B2: W3XX115-T2U0.E44-32.uIgG4V322 (Fc fusion)
chain: B1 chain with F42I, T129L, F145A, L146A
heavy: B1 heavy with F234A, L235A
light: B1 light

binding [2]: binds | binding [3]: binds | binding [4]: binds | binding [1]: binds | binding [5]: binds
B3: W3XX115-T2U0.E44-33.uIgG4V322 (Fc fusion)
chain: B1 chain with R38W, T129L, F145A, L146A
heavy: B1 heavy with F234A, L235A
light: B1 light

binding [1]: binds
B4: W3XX115-T2U0.E44-31.uIgG4V322 (Fc fusion)
chain: B1 chain with F42V, T129L, F145A, L146A
heavy: B1 heavy with F234A, L235A
light: B1 light

binding [3]: binds
B5: W3XX115-T2U0.E44-39.uIgG4V322 (Fc fusion)
chain: B1 chain with I128A, T129I, F145A, L146A
heavy: B1 heavy with F234A, L235A
light: B1 light
